Test results from patent publication US20230080144A1, “REAL-TIME FLUORESCENCE IMAGING SENSOR FOR MEASURING GLUTATHIONE IN ENDOPLASMIC RETICULUM AND METHOD USING SAME” (CELL2IN, INC., priority 2019, published 2023).

Test system: UC-MSCs
Assay: Measurement of intracellular retention time of each ER-FT derivative compound (Operetta imaging)
Type: cell-based
Details: for fluorescence intensity as a function of retention time: 510 nm and 580 nm, 10, 15 and 20 μM staining for 1 hour
Procedure: (1) UC-MSCs were seeded into 96-well plates at a density of 4,000 cells/well and then cultured 24 hours. (2) Cell media containing each of ER-FTs (Formulas IV to VI) at concentrations of 10, 15 and 20 μM were prepared. (3) After medium suction, ER-FT staining was performed, followed by incubation in an incubator at 37° C. for 1 hour. (4) After medium suction, 100 μl of HBSS was added to each well.

Compound | fluorescence intensity as a function of retention time | retention in the cells
Cc1ccc(S(=O)(=O)NCCNC(=O)C2CCN(C(=O)C(C#N)=Cc3cc4cc5c6c(c4oc3=O)CCCN6CCC5)CC2)cc1 [Formula IV] | constant fluorescence intensity | 
N#CC(=Cc1cc2cc3c4c(c2oc1=O)CCCN4CCC3)C(=O)N1CCC(C(=O)NCCCOCCOCCOCCCNC(=O)c2c(F)c(F)c(F)c(F)c2F)CC1 [Formula VII] | high at the initial stage, but decreased gradually during the initial 20 minutes | remained in the cells for a long time
N#CC(=Cc1cc2cc3c4c(c2oc1=O)CCCN4CCC3)C(=O)N1CCC(C(=O)NCCNC(=O)c2c(F)c(F)c(F)c(F)c2F)CC1 [Formula VI] | high at the initial stage, but decreased gradually during the initial 20 minutes | remained in the cells for a long time
Cc1ccc(S(=O)(=O)NCCCOCCOCCOCCCNC(=O)C2CCN(C(=O)C(C#N)=Cc3cc4cc5c6c(c4oc3=O)CCCN6CCC5)CC2)cc1 [Formula V] | constant fluorescence intensity | 
